Experimental data as given in patent CN109942708A.
No constants are given. Whether binding was seen depends on the method and setting. Some results given as binding are weak or reduced against the parent protein; the word gives no strength.

Protein sequences, listed by entry. Tags and fused reporters are not part of them. Lines headed by an entry give the natural chain unless they say otherwise; changes in a name come on top. Residues count along the entry.
UniProt Q02223: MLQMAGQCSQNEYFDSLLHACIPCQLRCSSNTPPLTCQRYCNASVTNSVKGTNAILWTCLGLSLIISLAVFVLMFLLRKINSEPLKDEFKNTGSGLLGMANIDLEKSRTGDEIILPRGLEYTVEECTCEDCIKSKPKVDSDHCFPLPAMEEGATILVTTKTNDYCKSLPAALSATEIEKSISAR
BCMA抗原: residues 1-54 of Q02223

Legend:
[1] = biological target: BCMA on BCMA-positive cells (A549-BCMA, U266) (UniProt Q02223); test: flow cytometry, FITC-labelled VHH on U266 cells
[2] = biological target: BCMA on BCMA-positive cells (A549-BCMA, U266) (UniProt Q02223); test: flow cytometry, FITC-labelled VHH on A549-BCMA cells
BCMA抗原 = BCMA抗原 (UniProt Q02223); test: ELISA on antigen coated at 10ug/mL

Measured: binding

B1: BCMA单域抗体B65 (VHH)
VHH: QLQLVESGGGLVQPGGSLRLSCAASGSISGIYAMGWYRQAPGKQRRLVAAITSGGDTFHADSVKGRFTISRDNAKNTMYLQMNSLKPEDTAVYYCNVAPWGDYDVRADFGSWGQGTQVTVSS
binds: all assays above

B2: BCMA单域抗体B1 (VHH)
VHH: QVQLVESGGGLVQPGGSLRLSCTASGSILSIYAMGWYRQAPGKQRELVAAINISSNTFYRDSVKGRFTISRDNAENTVYLQMNSLKPEDTAVYYCNVAPWGDYDVKTDFGGWGQGTQVTVSS
binds: all assays above
